Some entries share one result that the patent states for a list of compounds.
Columns and labels:
[1] = target: T1, glucocorticoid receptor (GR) (Homo sapiens, UniProt P04150); test: Ligand binding assay (GR BIND), 3H-dexamethasone displacement, HeLa cell lysate; details: calculated using DEX as a reference
T1 construct: endogenous in cells; host or cells: HeLa (ATCC) cell lysate supernatant
T1 sequence (P04150 1-777): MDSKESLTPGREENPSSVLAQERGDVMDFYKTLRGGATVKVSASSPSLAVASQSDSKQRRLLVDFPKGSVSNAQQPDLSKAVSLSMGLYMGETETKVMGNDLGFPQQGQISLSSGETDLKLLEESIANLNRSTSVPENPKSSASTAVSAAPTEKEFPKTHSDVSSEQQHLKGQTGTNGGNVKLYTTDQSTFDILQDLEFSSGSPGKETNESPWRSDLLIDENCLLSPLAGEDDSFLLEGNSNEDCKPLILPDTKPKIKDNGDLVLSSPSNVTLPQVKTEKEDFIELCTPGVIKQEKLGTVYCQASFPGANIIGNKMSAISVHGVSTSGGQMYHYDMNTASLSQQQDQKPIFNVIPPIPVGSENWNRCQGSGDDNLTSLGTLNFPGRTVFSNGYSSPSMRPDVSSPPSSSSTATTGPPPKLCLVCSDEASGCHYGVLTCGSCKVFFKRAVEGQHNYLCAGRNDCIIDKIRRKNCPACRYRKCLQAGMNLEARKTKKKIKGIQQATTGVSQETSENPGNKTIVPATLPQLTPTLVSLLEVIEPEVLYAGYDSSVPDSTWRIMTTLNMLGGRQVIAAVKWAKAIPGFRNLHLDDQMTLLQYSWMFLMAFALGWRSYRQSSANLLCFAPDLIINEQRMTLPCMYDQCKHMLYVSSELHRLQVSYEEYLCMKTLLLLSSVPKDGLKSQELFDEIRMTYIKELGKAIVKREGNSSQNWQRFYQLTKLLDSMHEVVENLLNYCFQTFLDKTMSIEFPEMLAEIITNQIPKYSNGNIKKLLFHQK
Method in brief: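 HeLa cell lysate supernatant in TEGM (pH 7.2, molybdate) incubated overnight at 4 °C with 3H-dexamethasone trace (6 nM stock) and serially diluted compound, 2% EtOH final. Bound receptor captured on hydroxylapatite, filtered and counted by scintillation; IC50 calculated with dexamethasone as reference.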

[2] = target: T2, human GR (Homo sapiens, UniProt P04150); test: Trans-Activation Modulation of Glucocorticoid Receptor (GRAMMER), MMTV-LUC reporter gene; assay type: cell-based; design: endogenous in cells; details: GRAMMER versus GITAR
T2 sequence (P04150 1-777): T1 sequence (P04150 1-777)

| SMILES | IC50 [1] | maximal transactivation activity compared with maximal transrepression activity [2] |
| --- | --- | --- |
| C[C@]12Cc3cnn(-c4ccc(F)cc4)c3C=C1CC[C@@]2(O)CCc1cccc(F)c1CNS(=O)(=O)CS(C)(=O)=O [Example 97, N-(2-fluoro-6-{2-[(4αS,5R)-1-(4-fluorophenyl)-5-hydroxy-4α-methyl-1,4,4α,5,6,7-hexahydrocyclopenta[f]indazol-5-yl]ethyl}benzyl)-1-(methylsulfonyl)methanesulfonamide] | < 1000 nM | maximal transactivation activity less then maximal transrepression activity |
| C[C@]12Cc3cnn(-c4ccc(F)cc4)c3C=C1CC[C@@]2(O)CCc1cccc(F)c1CNS(=O)(=O)c1ccccc1 [Example 78, N-(2-fluoro-6-{2-[(4αS,5R)-1-(4-fluorophenyl)-5-hydroxy-4α-methyl-1,4,4α,5,6,7-hexahydrocyclopenta[f]indazol-5-yl]ethyl}benzyl)benzenesulfonamide] | < 1000 nM | maximal transactivation activity less then maximal transrepression activity |
| C[C@]12Cc3cnn(-c4ccccc4)c3C=C1CC[C@@]2(O)CCc1ccccc1C(N)=O [Example 43, 2-{2-[(4αS,5R)-5-hydroxy-4α-methyl-1-phenyl-1,4,4α,5,6,7-hexahydrocyclopenta[f]indazol-5-yl]ethyl}benzamide] | < 1000 nM | maximal transactivation activity less then maximal transrepression activity |
| C[C@]12Cc3cnn(-c4ccc(F)cc4)c3C=C1CC[C@@]2(O)CCc1cccc(F)c1CNS(=O)(=O)c1cccc(C#N)c1 [Example 81, 3-cyano-N-(2-fluoro-6-{2-[(4αS,5R)-1-(4-fluorophenyl)-5-hydroxy-4α-methyl-1,4,4α,5,6,7-hexahydrocyclopenta[f]indazol-5-yl]ethyl}benzyl)benzenesulfonamide] | < 1000 nM | maximal transactivation activity less then maximal transrepression activity |
| C[C@]12Cc3cnn(-c4ccc(F)cc4)c3C=C1CC[C@@]2(O)CCc1cc(F)ccc1N [Example 112, (4αS,5R)-5-[2-(2-amino-5-fluorophenyl)ethyl]-1-(4-fluorophenyl)-4α-methyl-1,4,4α,5,6,7-hexahydrocyclopenta[f]indazol-5-ol] | < 1000 nM | maximal transactivation activity less then maximal transrepression activity |
| CC(C)NC(=O)c1ccccc1CC[C@]1(O)CCC2=Cc3c(cnn3-c3ccc(F)cc3)C[C@@]21C [Example 35, 2-{2-[(4αS,5R)-1-(4-fluorophenyl)-5-hydroxy-4α-methyl-1,4,4α,5,6,7-hexahydrocyclopenta[f]indazol-5-yl]ethyl}-N-isopropylbenzamide] | < 1000 nM | maximal transactivation activity less then maximal transrepression activity |
| C[C@H](NS(=O)(=O)C1CC1)c1ccccc1CC[C@]1(O)CCC2=Cc3c(cnn3-c3ccc(F)cc3)C[C@@]21C [Example 95, N-[(1S)-1-(2-{2-[(4αS,5R)-1-(4-fluorophenyl)-5-hydroxy-4α-methyl-1,4,4α,5,6,7-hexahydrocyclopenta[f]indazol-5-yl]ethyl}phenyl)ethyl]cyclopropanesulfonamide] | < 1000 nM | maximal transactivation activity less then maximal transrepression activity |
| CN(C)S(=O)(=O)c1ccccc1CC[C@]1(O)CCC2=Cc3c(cnn3-c3ccc(F)cc3)C[C@@]21C [Example 138, 2-{2-[(4αS,5R)-1-(4-fluorophenyl)-5-hydroxy-4α-methyl-1,4,4α,5,6,7-hexahydrocyclopenta[f]indazol-5-yl]ethyl}-N,N-dimethylbenzenesulfonamide] | < 1000 nM | maximal transactivation activity less then maximal transrepression activity |
| C[C@]12Cc3cnn(-c4ccc(F)cc4)c3C=C1CC[C@@]2(O)CCc1ccccc1C=O [Example 21, 2-{2-[(4αS,5R)-1-(4-Fluorophenyl)-5-hydroxy-4α-methyl-1,4,4α,5,6,7-hexahydrocyclopenta[f]indazol-5-yl]ethyl}benzaldehyde] | < 1000 nM | maximal transactivation activity less then maximal transrepression activity |
| C=C(F)CNC(=O)c1ccccc1CC[C@]1(O)CCC2=Cc3c(cnn3-c3ccc(F)cc3)C[C@@]21C [Example 53, 2-{2-[(4αS,5R)-1-(4-fluorophenyl)-5-hydroxy-4α-methyl-1,4,4α,5,6,7-hexahydrocyclopenta[f]indazol-5-yl]ethyl}-N-(2-fluoroprop-2-en-1-yl)benzamide] | < 1000 nM | maximal transactivation activity less then maximal transrepression activity |
| C[C@]12Cc3cnn(-c4ccc(F)cc4)c3C=C1CC[C@@]2(O)CCc1ccccc1-c1ccc(F)nc1 [Example 10, (4αS,5R)-1-(4-fluorophenyl)-5-{2-[2-(6-fluoropyridin-3-yl)phenyl]ethyl}-4α-methyl-1,4,4α,5,6,7-hexahydrocyclopenta[f]indazol-5-ol] | < 1000 nM | maximal transactivation activity less then maximal transrepression activity |
| C[C@]12Cc3cnn(-c4ccc(F)cc4)c3C=C1CC[C@@]2(O)CCc1ccccc1C(=O)N1CCC1 [Example 40, (4αS,5R)-5-{2-[2-(azetidin-1-ylcarbonyl)phenyl]ethyl}-1-(4-fluorophenyl)-4α-methyl-1,4,4α,5,6,7-hexahydrocyclopenta[f]indazol-5-ol] | < 1000 nM | maximal transactivation activity less then maximal transrepression activity |
| C[C@]12Cc3cnn(-c4ccc(F)cc4)c3C=C1CC[C@@]2(O)CCc1ccccc1C(=O)O [Example 1, 2-{2-[(4αS,5R)-1-(4-Fluorophenyl)-5-hydroxy-4α-methyl-1,4,4α,5,6,7-hexahydrocyclopenta[f]indazol-5-yl]ethyl}benzoic acid] | < 1000 nM | maximal transactivation activity less then maximal transrepression activity |
| Cc1cccc(CC[C@]2(O)CCC3=Cc4c(cnn4-c4cccc(F)c4)C[C@@]32C)c1C(N)=O [Example 191, 2-{2-[(4αS,5R)-1-(3-fluorophenyl)-5-hydroxy-4α-methyl-1,4,4α,5,6,7-hexahydrocyclopenta[f]indazol-5-yl]ethyl}-6-methylbenzamide] | < 1000 nM | maximal transactivation activity less then maximal transrepression activity |
| C=CCN(C)C(=O)c1ccccc1CC[C@]1(O)CCC2=Cc3c(cnn3-c3ccc(F)cc3)C[C@@]21C [Example 50, N-allyl-2-{2-[(4αS,5R)-1-(4-fluorophenyl)-5-hydroxy-4α-methyl-1,4,4α,5,6,7-hexahydrocyclopenta[f]indazol-5-yl]ethyl}-N-methylbenzamide] | < 1000 nM | maximal transactivation activity less then maximal transrepression activity |

From patent publication US8119681B2, “2-[1-phenyl-5-hydroxy or methoxy-4alpha-methyl-hexahydrocyclopenta [ƒ]indazole-5-YL]ethyl phenyl derivatives as glucocorticoid receptor ligands” (Merck Sharp & Dohme Corp., priority 2006, dated 2012)
